Taken from: PubChem BioAssay AID1259405 (NCATS, 2018)
Aim: 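Knock-downs that lift recombinant protein yield in hamster ovary cells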 (primary screen). Cells: Chinese hamster CHO-K1 ovary cells with stable secreted eGFP expression. Knock-down reagent: single siRNA against mouse genes, 0.8 pmol siRNA per well (2 µl of 400 nM stock). Duration: 3 days. Measurement: 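Percent of the per-plate non-targeting control median for intracellular GFP per well by laser scanning cytometry and for cell viability by ATP luminescence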. Scale: GFP, % of control: higher = more GFP per well, higher productivity; viability (ATP), % of control: higher = more viable cells (more ATP). Call rule: 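Called active when intracellular GFP, relative to negative control, is at or above 120%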.
This is a random part of about 50,000 reagents tested. Over the whole deposit, about 4,000 (8%) are marked active. 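Mouse siRNA library applied to hamster cells; one well for each siRNA.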 Reagent sequences are not shown.

Chtf18 (GeneID 214901) [SID363547581]
- GFP, % of control: 89
- viability (ATP), % of control: 67.4
- call: inactive

Chtf18 (GeneID 214901) [SID363558350]
- GFP, % of control: 76
- viability (ATP), % of control: 60
- call: inactive

Chtf18 (GeneID 214901) [SID363560108]
- GFP, % of control: 45.8
- viability (ATP), % of control: 53.3
- call: inactive

Gnat1 (GeneID 14685) [SID363545386]
- GFP, % of control: 129
- viability (ATP), % of control: 59
- call: active

Gnat1 (GeneID 14685) [SID363548899]
- GFP, % of control: 60.4
- viability (ATP), % of control: 86
- call: inactive

Gnat1 (GeneID 14685) [SID363562705]
- GFP, % of control: 81.6
- viability (ATP), % of control: 59.8
- call: inactive

Ccne1 (GeneID 12447) [SID363573451]
- GFP, % of control: 40.5
- viability (ATP), % of control: 65
- call: inactive

Ccne1 (GeneID 12447) [SID363588690]
- GFP, % of control: 117
- viability (ATP), % of control: 94.6
- call: inactive

Acap3 (GeneID 140500) [SID363570212]
- GFP, % of control: 129
- viability (ATP), % of control: 77.2
- call: active

Acap3 (GeneID 140500) [SID363576548]
- GFP, % of control: 102
- viability (ATP), % of control: 73
- call: inactive

Acap3 (GeneID 140500) [SID363579716]
- GFP, % of control: 105
- viability (ATP), % of control: 84.2
- call: inactive

Tmem101 (GeneID 76547) [SID363543871]
- GFP, % of control: 58.3
- viability (ATP), % of control: 44
- call: inactive

Tmem101 (GeneID 76547) [SID363551607]
- GFP, % of control: 95.2
- viability (ATP), % of control: 99.1
- call: inactive

Tmem101 (GeneID 76547) [SID363559212]
- GFP, % of control: 86.3
- viability (ATP), % of control: 80
- call: inactive

Ccnt1 (GeneID 12455) [SID363573486]
- GFP, % of control: 63.4
- viability (ATP), % of control: 59.2
- call: inactive

Ccnt1 (GeneID 12455) [SID363588725]
- GFP, % of control: 108
- viability (ATP), % of control: 112
- call: inactive

Cradd (GeneID 12905) [SID363574278]
- GFP, % of control: 80.2
- viability (ATP), % of control: 98.2
- call: inactive

Cradd (GeneID 12905) [SID363575334]
- GFP, % of control: 61.9
- viability (ATP), % of control: 58.4
- call: inactive

Cradd (GeneID 12905) [SID363579910]
- GFP, % of control: 58.5
- viability (ATP), % of control: 72.4
- call: inactive

Slc39a3 (GeneID 106947) [SID363574668]
- GFP, % of control: 60.4
- viability (ATP), % of control: 79.1
- call: inactive

Slc39a3 (GeneID 106947) [SID363575724]
- GFP, % of control: 37.7
- viability (ATP), % of control: 66
- call: inactive

Slc39a3 (GeneID 106947) [SID363580300]
- GFP, % of control: 85
- viability (ATP), % of control: 57
- call: inactive

Sec61b (GeneID 66212) [SID363555115]
- GFP, % of control: 92.2
- viability (ATP), % of control: 85.9
- call: inactive

Sec61b (GeneID 66212) [SID363568562]
- GFP, % of control: 48.6
- viability (ATP), % of control: 65.8
- call: inactive

Sec61b (GeneID 66212) [SID363586621]
- GFP, % of control: 53.9
- viability (ATP), % of control: 64.1
- call: inactive

Tor1b (GeneID 30934) [SID363556492]
- GFP, % of control: 137
- viability (ATP), % of control: 97.8
- call: active

Tor1b (GeneID 30934) [SID363586942]
- GFP, % of control: 110
- viability (ATP), % of control: 100
- call: inactive

Tor1b (GeneID 30934) [SID363589050]
- GFP, % of control: 123
- viability (ATP), % of control: 117
- call: active

Bend7 (GeneID 209645) [SID363539769]
- GFP, % of control: 43.7
- viability (ATP), % of control: 72.4
- call: inactive

Bend7 (GeneID 209645) [SID363561070]
- GFP, % of control: 63.9
- viability (ATP), % of control: 75.5
- call: inactive

Bend7 (GeneID 209645) [SID363565160]
- GFP, % of control: 9.26
- viability (ATP), % of control: 10.8
- call: inactive

Gypc (GeneID 71683) [SID363539890]
- GFP, % of control: 82.4
- viability (ATP), % of control: 71.3
- call: inactive

Gypc (GeneID 71683) [SID363561191]
- GFP, % of control: 78.2
- viability (ATP), % of control: 96.2
- call: inactive

Gypc (GeneID 71683) [SID363564227]
- GFP, % of control: 92.3
- viability (ATP), % of control: 77.2
- call: inactive

Dennd1b (GeneID 329260) [SID363546939]
- GFP, % of control: 55.5
- viability (ATP), % of control: 53.6
- call: inactive

Dennd1b (GeneID 329260) [SID363549751]
- GFP, % of control: 69.1
- viability (ATP), % of control: 73.6
- call: inactive

Dennd1b (GeneID 329260) [SID363587805]
- GFP, % of control: 138
- viability (ATP), % of control: 116
- call: active

Apool (GeneID 68117) [SID363542650]
- GFP, % of control: 73.5
- viability (ATP), % of control: 90.3
- call: inactive

Apool (GeneID 68117) [SID363546167]
- GFP, % of control: 58.3
- viability (ATP), % of control: 26.9
- call: inactive

Apool (GeneID 68117) [SID363547923]
- GFP, % of control: 77
- viability (ATP), % of control: 101
- call: inactive

4 entries from above in another layout:
{"target gene":"Sec61b (GeneID 66212)","PubChem SID":"SID363586621","GFP, % of control":53.9,"viability (ATP), % of control":64.1,"call":"inactive"}
{"target gene":"Tor1b (GeneID 30934)","PubChem SID":"SID363556492","GFP, % of control":137,"viability (ATP), % of control":97.8,"call":"active"}
{"target gene":"Tor1b (GeneID 30934)","PubChem SID":"SID363586942","GFP, % of control":110,"viability (ATP), % of control":100,"call":"inactive"}
{"target gene":"Tor1b (GeneID 30934)","PubChem SID":"SID363589050","GFP, % of control":123,"viability (ATP), % of control":117,"call":"active"}
